T. brucei: 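Whole-parasite assay of Trypanosoma brucei over 72 hours; the read-out is not stated. Tested at 30 µM. Direction is inferred from retests: higher values go with stronger inhibition. Values scatter widely below zero; nearly all retest evidence comes from the higher of the two concentrations used. Size under these conditions: about 64,000 compounds, about 940 of them at 50% or above in at least one test.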
PfKRS1: 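Enzyme assay of the cytosolic lysyl-tRNA synthetase in 384-well plates, read by luminescence. Target: Lysine-tRNA ligase, Plasmodium falciparum 3D7 (UniProt Q8IDJ8). Compounds at 30 µM. Higher reads as stronger inhibition, judged from the few compounds that gave an IC50. Of about 69,000 compounds tested this way, about 49 (0.071%) reached 50% or more in at least one test.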

Protein sequences, listed by entry. Tags and fused reporters are not part of them. Residues count along the entry.
UniProt Q8IDJ8, 1-583: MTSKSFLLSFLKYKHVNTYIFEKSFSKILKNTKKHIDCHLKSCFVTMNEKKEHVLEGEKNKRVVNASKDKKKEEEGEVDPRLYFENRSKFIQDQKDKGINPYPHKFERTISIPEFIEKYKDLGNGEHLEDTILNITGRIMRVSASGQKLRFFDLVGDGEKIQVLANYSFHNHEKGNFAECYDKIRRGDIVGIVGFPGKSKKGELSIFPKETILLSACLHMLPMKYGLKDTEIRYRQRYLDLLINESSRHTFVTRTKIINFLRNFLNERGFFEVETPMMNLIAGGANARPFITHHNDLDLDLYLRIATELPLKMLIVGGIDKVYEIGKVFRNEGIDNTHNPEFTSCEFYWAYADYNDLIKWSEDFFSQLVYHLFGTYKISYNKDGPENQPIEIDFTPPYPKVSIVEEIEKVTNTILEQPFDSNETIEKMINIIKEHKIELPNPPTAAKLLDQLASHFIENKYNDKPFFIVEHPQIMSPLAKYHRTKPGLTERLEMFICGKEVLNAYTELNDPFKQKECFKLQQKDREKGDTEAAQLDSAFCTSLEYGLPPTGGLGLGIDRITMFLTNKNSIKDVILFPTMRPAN

Results are given as percent effect. The controls that fix the scale are not given in the record; negative values are as filed. This is an unselected part of the compounds tested. A dash means the value is not listed here; it may have been measured.

structure,T. brucei,PfKRS1
Cc1cccc(C(=O)N(C)C2CCN(c3ccccn3)CC2)c1C,-,3.712
CCCNC(=O)C(C)n1cc(Br)cn1 (configuration not stated),-9.977,5.822
Cc1csc(CNc2cnc3c(c2)c(C)nn3C)n1,-12.86,1.045
CCc1nnsc1C(=O)NC1CCN(c2ccccn2)CC1,7.521,-3.412
CC(NC(=O)C1CCCC1)c1nncn1C(C)C (configuration not stated),-37.09,5.347
COc1c(C2CCCN2C(=O)c2cccn2C)c(C)nn1C (configuration not stated),-47.2,-1.126
COCC(=O)Nc1ccnc(OCCN(C)C)c1,-93.83,7.189
Cn1cc(CN2CCCN(C(=O)c3ccc4c(c3)COC4)CC2)cn1,12.95,8.043
Cc1ccc(O)c(CNCC2CCCN2c2cccnn2)n1 (configuration not stated),7.194,-0.3248
Cc1noc(C)c1CN1C[C@@H]2COC[C@H](C(=O)N3CCOCC3)[C@@H]2C1,-,0.8733
O=C(NC[C@H]1OC[C@@H](NC2CCOCC2)[C@@H]1O)c1cccs1,-5.257,7.057
Cc1cc(C)n(CC(=O)N2CCC(c3ccn4nccc4n3)CC2)n1,2.507,-0.8578
Cc1cnn(CC2CN(CCN3CCCC3=O)CCO2)c1 (configuration not stated),13.82,5.413
Cc1nc(N2CCCC2C(=O)NCc2ccsc2)nc2ccccc12 (configuration not stated),-9.693,5.215
CC1CN(Cc2cccc(CN)c2)CCO1 (configuration not stated),-33.23,-0.4955
CNC(=O)c1ccc(CN2CCC(N(C)Cc3noc(C)n3)C2)cc1 (configuration not stated),31.83,7.589
Cc1nc(C(=O)N(Cc2c(C)nn(C)c2C)C(C)C)cs1,-7.625,7.729
CCCn1nccc1C(=O)Nc1nc(C)c(C)s1,41.43,9.602
Cc1nc(C)c(C)c(NCCSCc2[nH]cnc2C)n1,8.003,3.602
O=C(NCCC1Cc2ccccc2C1)N1CCCC(O)C1 (configuration not stated),-66.43,2.328
COc1ncc(CN2CCCC(c3[nH]ncc3S(C)(=O)=O)C2)cn1 (configuration not stated),6.228,3.667
Cn1nc(-c2ccc(Cl)cc2)c(Br)c1C(=O)O,-21.18,6.28
CC(C(=O)N1CCCN(Cc2cnn(C)c2)CC1)n1ccnc1 (configuration not stated),-21.28,-3.126
C[C@H](C(=O)N1Cc2ccccc2CC2(CCCN2C)C1)c1ccccc1 (some centres not stated),-,5.462
CC(C)(C)OC(=O)N1CCC(C(=O)NCCNc2ncccn2)CC1,-7.966,4.732
[H][C@@]12CN(C(=O)[C@H]3CCCO3)C[C@]1([H])C(=O)N(Cc1ccc(OC)cc1)C2,-1.629,-
Cc1nnc(CN(C)C2CCN(c3cccc(-c4cscn4)c3)CC2)o1,3.741,1.051
O=C(NCc1cccnc1)[C@@H]1CC[C@@H]2[C@@H](CCN2c2ncccn2)O1,-,1.985
N#Cc1ccc(CC(=O)N2CCC(Nc3cccnn3)CC2)cc1,-0.8425,-0.08265
Cc1ccc(CC(=O)N(CC2CN(C)CCO2)c2nccs2)cn1 (configuration not stated),-9.168,-1.818
CN1Cc2cnn(CC3CCCC3)c2C(COCC2CC2)C1 (configuration not stated),-,0.6729
COc1ccc(CNCCc2cc(F)cc3c2OCOC3)cc1O,46.47,6.531
CC(C)c1nnc2n1CCN(C(=O)CN1CCc3sccc3C1)C2,-9.645,3.238
CCC1CN(C)c2ccccc2CN1C(=O)CCn1cncn1 (configuration not stated),12.6,5.855
Cc1noc(C)c1CN(C)C(=O)c1ccc(C(N)=O)nc1,19.65,0.3836
COc1cccc(-n2nnc(C(=O)N3CCCC3)c2C)c1,-7.599,-1.149
Cc1nnc(NC(=O)NCc2ccnc(N(C)C)c2)s1,-,0.6699
CN(CCN1CCCC1=O)CC(c1cccs1)N1CCOCC1 (configuration not stated),-14.22,0.9958
Cc1nc(CN2CCCC(CCNS(C)(=O)=O)C2)c[nH]1 (configuration not stated),-19.87,4.684
Cc1noc(C)c1CN1CCO[C@H]2CN(CC3CC3)C[C@H]21,-,2.541
Cc1nc(C2CCNCC2)cc(N(C)Cc2cc3cc(F)ccc3[nH]2)n1,7.512,3.385
CCc1nc(C2CCCN(C(=O)c3cn(C)nc3C)C2)no1 (configuration not stated),-20.11,-2.068
COCCOc1cc(C)ccc1NC(=O)N(C)Cc1cnn(C)c1,-20.39,0.9951
Cc1occc1C(=O)N1CCC2(CCCN(Cc3cccs3)C2)C1 (configuration not stated),-,5.317
COCCN1CCCC12CCN(Cc1cccnc1OC)CC2.O=C(O)C(F)(F)F.O=C(O)C(F)(F)F,-45.95,-
CCc1nnc2ccc(NCC3(O)CCOCC3)nn12,0.8357,3.015
COC1COC2(CCN(C(=O)c3cocn3)CC2)C1 (configuration not stated),-0.9181,-3.28
CN(C)CCN1C(=O)C[C@@H]2[C@@H]1CCN2S(=O)(=O)c1ccccc1,-,2.593
Cc1noc(C)c1CNC(=O)N1CCN(CC2CC2)CC1,-42.79,3.341
Cc1cccc(CN2C(=O)CO[C@@H]3CN(CCO)C[C@H]32)c1,-,1.192
Cc1ccc(CN(CCCN2CCOCC2)Cc2cnc(C)n2C)o1,-,0.8813
CCCc1nnc2sc(C3CCS(=O)(=O)CC3)nn12,0.5978,5.146
CO[C@@H]1c2ccccc2C2(CCN(C(=O)CNS(C)(=O)=O)CC2)[C@H]1O,-19.37,-2.224
CC(C)CSc1ccc(-n2cccn2)nn1,-16.93,-1.35
CC(=O)NC1CCN(c2ccnc(C3CCNCC3)c2)CC1,-,-0.1001
CC(=O)Nc1cc(C(=O)Nc2cc(CC(C)(C)C)nn2C)ccc1F,-100.5,5.49
Cc1cc(C)n(CCC(=O)N2CCCC(c3nc(C(C)C)no3)C2)n1 (configuration not stated),-12.28,3.788
CCCN(CCC)c1nc(N)nc(-c2cc(Cl)ccc2OC)n1,-23.59,-0.1601

Repeated from the top, 3 entries:

| structure | T. brucei | PfKRS1 |
|---|---|---|
| `Cc1cccc(C(=O)N(C)C2CCN(c3ccccn3)CC2)c1C` | - | 3.712 |
| `CCCNC(=O)C(C)n1cc(Br)cn1` (configuration not stated) | -9.977 | 5.822 |
| `Cc1csc(CNc2cnc3c(c2)c(C)nn3C)n1` | -12.86 | 1.045 |

Source: ChEMBL document CHEMBL3988442, “University of Dundee, Small-Polar-MMV Screening Library” (2021).